Measurements taken from PMC11926216.
Results are given in words; binding and its absence hold for the method and conditions named. In cells and extracts the contact can be indirect.

Amino acid sequences for entries named in this document (tags omitted). Residues count along the entry.
UniProt Q13443, residues 29-819: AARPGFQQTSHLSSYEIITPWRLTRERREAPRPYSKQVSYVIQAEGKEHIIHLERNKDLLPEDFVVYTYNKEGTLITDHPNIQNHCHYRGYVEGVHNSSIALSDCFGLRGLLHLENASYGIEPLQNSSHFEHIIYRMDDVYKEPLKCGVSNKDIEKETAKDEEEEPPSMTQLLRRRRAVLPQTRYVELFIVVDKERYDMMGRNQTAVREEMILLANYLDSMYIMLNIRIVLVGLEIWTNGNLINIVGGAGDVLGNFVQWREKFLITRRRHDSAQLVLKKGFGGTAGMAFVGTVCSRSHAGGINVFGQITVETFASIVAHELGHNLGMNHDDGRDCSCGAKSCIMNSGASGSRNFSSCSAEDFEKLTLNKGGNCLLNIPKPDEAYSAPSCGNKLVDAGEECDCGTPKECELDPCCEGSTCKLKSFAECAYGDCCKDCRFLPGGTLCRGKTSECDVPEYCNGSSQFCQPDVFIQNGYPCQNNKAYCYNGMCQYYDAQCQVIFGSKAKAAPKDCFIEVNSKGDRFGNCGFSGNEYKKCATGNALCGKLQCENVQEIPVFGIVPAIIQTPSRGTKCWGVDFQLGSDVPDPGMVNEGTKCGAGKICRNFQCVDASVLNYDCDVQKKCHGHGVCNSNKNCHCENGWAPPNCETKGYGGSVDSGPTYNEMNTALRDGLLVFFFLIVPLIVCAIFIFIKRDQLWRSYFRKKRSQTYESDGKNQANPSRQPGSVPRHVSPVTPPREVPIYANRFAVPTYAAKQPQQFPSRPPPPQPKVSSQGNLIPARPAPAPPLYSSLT
UniProt P35367: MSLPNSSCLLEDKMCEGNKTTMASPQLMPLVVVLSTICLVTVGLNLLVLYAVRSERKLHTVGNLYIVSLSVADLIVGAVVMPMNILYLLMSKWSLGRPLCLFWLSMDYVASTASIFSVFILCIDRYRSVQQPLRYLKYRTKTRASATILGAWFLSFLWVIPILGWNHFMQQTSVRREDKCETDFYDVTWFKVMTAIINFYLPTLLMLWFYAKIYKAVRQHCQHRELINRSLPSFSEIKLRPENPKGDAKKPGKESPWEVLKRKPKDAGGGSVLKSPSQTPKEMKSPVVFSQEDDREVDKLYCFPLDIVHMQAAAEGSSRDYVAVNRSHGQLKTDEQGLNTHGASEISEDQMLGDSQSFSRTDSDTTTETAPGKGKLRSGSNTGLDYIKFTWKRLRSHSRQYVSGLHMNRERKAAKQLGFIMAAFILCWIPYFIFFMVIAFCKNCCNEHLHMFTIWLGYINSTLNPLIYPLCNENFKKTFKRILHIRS

Target: a disintegrin and metalloprotease 9 (human (endogenous in SAS)) (UniProt Q13443)
Test: co-IP; endogenous proteins; SAS cells lysed in NETN buffer (150 mM NaCl, 20 mM Tris-base, 0.5% NP-40, 1 mM EDTA); 2 mg lysate with anti-ADAM9 antibody overnight at 4 °C, protein A Sepharose beads 1 h, five washes with NETN, Western blotting

- binding: no binding
Substance: Histamine receptor H1 (from UniProt P35367 1-487)
